The source of these data is the supplement of paper PMC2577665.

± gives the standard deviation of the averaged measurements. The data scatter; read single values as rough.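 Every well combined ERalpha-negative HeLa cells, transfected ERalpha, a two-estrogen-response-element reporter, and overexpression of a single poorly characterized human cDNA. Any gene lowering the signal to at most the BRCA1 positive control level, about 0.6 of empty vector, was called a repressor hit.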

The test system of the series is ERE-luciferase reporter with exogenous ERalpha in HeLa cells. Put plainly: relative ERE luciferase activity (Firefly/Renilla) upon cDNA overexpression, relative to empty vector (fold of empty vector); higher = stronger ERalpha transactivation (less repression). The conditions noted are these: 17beta-estradiol: 10 nM; 12 h.
With BAHCC1, the “relative ERE luciferase activity” value worked out at 1.06.
Take C8orf32: the “relative ERE luciferase activity” value was 1.11 ± 0.039.
Regarding C12orf31, the “relative ERE luciferase activity” value was 1.13.
Consider CBWD1, for which the “relative ERE luciferase activity” value was found to be 1.22.
Consider CLIC2, for which the “relative ERE luciferase activity” value worked out at 1.17.
For GJB6 the value was 2.22; for HMGN3, 1.21 ± 0.083.
As for “MAACRALKAVLVDLSGTLHIEDAAVPGAQEALKRLRGASVIIRFVTNTTKESKQDLLERLRKLEFDISEDEIFTSLTAARSLLERKQVRPMLLVDDRALPDFKGIQTSDPNAVVMGLAPEHFHYQILNQAFRLLLDGAPLIAIHKARYYKRKDGLALGPGPFVTALEYATDTKATVVGKPEKTFFLEALRGTGCEPEEAVMIGDDCRDDVGGAQDVGMLGILVKTGKYRASDEEKINPPPYLTCESFPHAVDHILQHLL [HDHD2]”, the “relative ERE luciferase activity” value was 1.06.
For the substance “MAAGTAAALAFLSQESRTRAGGVGGLRVPAPVTMDSFFFGCELSGHTRSFTFKVEEEDDAEHVLALTMLCLTEGAKDECNVVEVVARNHDHQEIAVPVANLKLSCQPMLSLDDFQLQPPVTFRLKSGSGPVRITGRHQIVTMSNDVSEEESEEEEEDSDEEEVELCPILPAKKQGGRP [NPM3]”, the “relative ERE luciferase activity” value came to 1.08.
As to “MAALGHLAGEAAAAPGPGTPCASRGARLPGPVSSARNPSTVCLCPEQPTCSNADSRAHPLGDEGGTASKKQKNKKKTRNRASVANGGEKASEKLAPEEVPLSAEAQAQQLAQELAWCVEQLELGLKRQKPTPKQKEQAIGAIRTLRSKRTPLPRKRQLMHSLFGDYRAQMEAEWREALRALRAAAYSAQVQPVDGATRKKSQRVCRPRSIWRAKATLDMPDEEFRFNFF [C8orf33]”, the “relative ERE luciferase activity” value came to 1.1.
For the substance “MAALIAENFRFLSLFFKSKDVMIFNGLVALGTVGSQELFSVVAFHCPCSPARNYLYGLAAIGVPALVLFIIGIILNNHTWNLVAECQHRRTKNCSAAPTFLLLSSILGRAAVAPVTWSVISLLRGEAYVCALSEFVDPSSLTAREEHFPSAHATEILARFPCKENPDNLSDFREEVSRRLRYESQLFGWLLIGVVAILVFLTKCLKHYCSPLSYRQEAYWAQYRANEDQLFQRTAEVHSRVLAANNVRRFFGFVALNKDDEELIANFPVEGTQPRPQWNAITGVYLYRENQGLPLYSRLHKWAQGLAGNGAAPDNVEMALLPS [FAM26B]”, the “relative ERE luciferase activity” value turned out to be 1.09.
For “MAAPSPGPREVLAPSPEAGCRAVTSSRRGLLWRLRDKQSRLGLFEISPGHELHGMTCMMQAGLWAATQVSMDHPPTGPPSRDDFSEVLTQVHEGFELGTLAGPAFAWLRRSLGLAEEDYQAALGPGGPYLQFLSTSKSKASFFLSHDQRFFLKTQGRREVQALLAHLPRYVQHLQRHPHSLLARLLGVHSLRVDRGKKTYFIVMQSVFYPAGRISERYDIKGCEVSRWVDPAPEGSPLVLVLKDLNFQGKTINLGPQRSWFLRQMELDTTFLRELNVLDYSLLIAFQRLHEDERGPGSSLIFRTARSVQGAQSPEESRAQNRRLLPDAPNALHILDGPEQRYFLGVVDLATVYGLRKRLEHLWKTLRYPGRTFSTVSPARYARRLCQWVEAHTE [PIP5KL1]” the value was 2.55; for “MAASTDMAGLEESFRKFAIHGDPKASGQEMNGKNWAKLCKDCKVADGKSVTGTDVDIVFSKVKGKSARVINYEEFKKALEELATKRFKGKSKEEAFDAICQLVAGKEPANVGVTKAKTGGAVDRLTDTSRYTGSHKERFDESGKGKGIAGRQDILDDSGYVSAYKNAGTYDAKVKK [TPPP3]”, 1.06; for “MAATSGTDEPVSGELVSVAHALSLPAESYGNDPDIEMAWAMRAMQHAEVYYKLISSVDPQFLKLTKVDDQIYSEFRKNFETLRIDVLDPEELKSESAKEKWRPFCLKFNGIVEDFNYGTLLRLDCSQGYTEENTIFAPRIQFFAIEIARNREGYNKAVYISVQDKEGEKGVNNGGEKRADSGEEENTKNGGEKGADSGEEKEEGINREDKTDKGGEKGKEADKEINKSGEKAM [CXorf26]”, 1.02.
As for “MAAYKLVLIRHGESAWNLENRFSGWYDADLSPAGHEEAKRGGQALRDAGYEFDICFTSVQKRAIRTLWTVLDAIDQMWLPVVRTWRLNERHYGGLTGLNKAETAAKHGEAQVKIWRRSYDVPPPPMEPDHPFYSNISKDRRYADLTEDQLPSCESLKDTIARALPFWNEEIVPQIKEGKRVLIAAHGNSLRGIVKHLEGLSEEAIMELNLPTGIPIVYELDKNLKPIKPMQFLGDEETVRKAMEAVAAQGKAKK [PGAM1]”, the “relative ERE luciferase activity” value is 1.01.
Turning to “MADDLGDEWWENQPTGAGSSPEASDGEGEGDTEVMQQETVPVPVPSEKTKQPKECFLIQPKERKENTTKTRKRRKKKITDVLAKSEPKPGLPEDLQKLMKDYYSSRRLVIELEELNLPDSCFLKANDLTHSLSSYLKEICPKWVKLRKNHSEKKSVLMLIICSSAVRALELIRSMTAFRGDGKVIKLFAKHIKVQAQVKLLEKRVVHLGVGTPGRIKELVKQGGLNLSPLKFLVFDWNWRDQKLRRMMDIPEIRKEVFELLEMGVLSLCKSESLKLGLF [C3orf26]”, the “relative ERE luciferase activity” value was 0.97.
Turning to “MADHSFSDGVPSDSVEAAKNASNTEKLTDQVMQNPRVLAALQERLDNVPHTPSSYIETLPKAVKRRINALKQLQVRCAHIEAKFYEEVHDLERKYAALYQPLFDKRREFITGDVEPTDAESEWHSENEEEEKLAGDMKSKVVVTEKAAATAEEPDPKGIPEFWFTIFRNVDMLSELVQEYDEPILKHLQDIKVKFSDPGQPMSFVLEFHFEPNDYFTNSVLTKTYKMKSEPDKADPFSFEGPEIVDCDGCTIDWKKGKNVTVKTIKKKQKHKGRGTVRTITKQVPNESFFNFFNPLKASGDGESLDEDSEFTLASDFEIGHFFRERIVPRAVLYFTGEAIEDDDNFEEGEEGEEEELEGDEEGEDEDDAEINPKV [NAP1L4]”, the “relative ERE luciferase activity” value amounted to 0.817.
For the substance “MAEGETESPGPKKCGPYISSVTSQSVNLMIRGVVLFFIGVFLALVLNLLQIQRNVTLFPPDVIASIFSSAWWVPPCCGTASAVIGLLYPCIDRHLGEPHKFKREWSSVMRCVAVFVGINHASAKVDFDNNIQLSLTLAALSIGLWWTFDRSRSGFGLGVGIAFLATVVTQLLVYNGVYQYTSPDFLYVRSWLPCIFFAGGITMGNIGRQLAMYECKVIAEKSHQE [INSIG2]”, the “relative ERE luciferase activity” value was determined as 1.05.
As for “MAESEDRSLRIVLVGKTGSGKSATANTILGEEIFDSRIAAQAVTKNCQKASREWQGRDLLVVDTPGLFDTKESLDTTCKEISRCIISSCPGPHAIVLVLLLGRYTEEEQKTVALIKAVFGKSAMKHMVILFTRKEELEGQSFHDFIADADVGLKSIVKECGNRCCAFSNSKKTSKAEKESQVQELVELIEKMVQCNEGAYFSDDIYKDTEERLKQREEVLRKIYTDQLNEEIKLVEEDKHKSEEEKEKEIKLLKLKYDEKIKNIREEAERNIFKDVFNRIWKMLSEIWHRFLSKCKFYSS [GIMAP7]”, the “relative ERE luciferase activity” value was 1.14.
Turning to “MAESLRSPRRSLYKLVGSPPWKEAFRQRCLERMRNSRDRLLNRYRQAGSSGPGNSQNSFLVQEVMEEEWNALQSVENCPEDLAQLEELIDMAVLEEIQQELINQEQSIISEYEKSLQFDEKCLSIMLAEWEANPLICPVCTKYNLRITSGVVVCQCGLSIPSHSSELTEQKLRACLEGSINEHSAHCPHTPEFSVTGGTEEKSSLLMSCLACDTWAVIL [RPAIN]”, the “relative ERE luciferase activity” value worked out at 1.18 ± 0.26.
Regarding “MAGAAEDARALFRAGVCAALEAWPALQIAVENGFGGVHSQEKAKWLGGAVEDYFMRNADLELDEVEDFLGELLTNEFDTVVEDGSLPQVSQQLQTMFHHFQRGDGAALREMASCITQRKCKVTATALKTARETDEDEDDVDSVEEMEVTATNDGAATDGVCPQPEPSDPDAQTIKEEDIVEDGWTIVRRKK [TSR2]”, the “relative ERE luciferase activity” value was found to be 2.27.
Regarding “MAGAAPTTAFGQAVIGPPGSGKTTYCLGMSEFLRALGRRVAVVNLDPANEGLPYECAVDVGELVGLGDVMDALRLGPNGGLLYCMEYLEANLDWLRAKLDPLRGHYFLFDCPGQVELCTHHGALRSIFSQMAQWDLRLTAVHLVDSHYCTDPAKFISVLCTSLATMLHVELPHINLLSKMDLIEHYGKLAFNLDYYTEVLDLSYLLDHLASDPFFRHYRQLNEKLVQLIEDYSLVSFIPLNIQDKESIQRVLQAVDKANGYCFRAQEQRSLEAMMSAAMGADFHFSSTLGIQEKYLAPSNQSVEQEAMQL [ATPBD1B]”, the “relative ERE luciferase activity” value worked out at 0.834.
